Source: PubChem BioAssay AID1224826 (NIAID, 2016)

- Test: 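Knock-downs that raise or lower Tnf reporter signal after endotoxin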 (primary screen)
- Cell system: RAW264.7 G9 macrophages from mouse bearing reporters for p65 (GFP) and the Tnf promoter (mCherry)
- Knock-down reagent: siRNA pool against mouse genes, 100 nM
- Duration: 16 h of LPS stimulation, after 2 days of siRNA transfection
- Challenge: bacterial lipopolysaccharide (Salmonella minnesota R595), 10 ng/ml
- Read-out: 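Imaged Tnf reporter mCherry in nuclei, minus background, normalised per plate to the median and expressed as robust z-scores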
- Scale: Tnf reporter robust z-score: higher = stronger Tnf promoter reporter signal after LPS
- Active means: 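Called active when robust z-score is at most -1.3, matching the median of the Tlr4 knock-down control, or over 3; control wells and wells with under 50 cells never active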
- Calls: active = Tnf reporter clearly lowered or raised; inactive = no clear change in Tnf reporter
This is an unselected part of about 17,000 reagents tested. In the full data, about 1,110 (6.6%) were called active. 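Active means lowered or raised reporter signal; replicate intensities are raw and not normalised per plate.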 Unmarked entries are inactive. Not all columns of the deposit are shown.

gene | Tnf reporter robust z-score | fewer than 50 cells in well
Mypn (myopalladin) | -0.79 | enough cells in well
Or5p1 (olfactory receptor family 5 subfamily P member 1) | – | fewer than 50 cells per well; well left out of calls
Zfp202 (zinc finger protein 202) | -0.87 | enough cells in well
Arhgef15 (Rho guanine nucleotide exchange factor 15) | 0.13 | enough cells in well
Srp68 (signal recognition particle 68) | – | fewer than 50 cells per well; well left out of calls
Cdh8 (cadherin 8) | -0.32 | enough cells in well
Neu1 (neuraminidase 1) | -1.51 (active) | enough cells in well
Sult2a2 | -0.62 | enough cells in well
Paqr5 (progestin and adipoQ receptor family member V) | -0.47 | enough cells in well
Zfp503 (zinc finger protein 503) | -0.85 | enough cells in well
Zfp185 (zinc finger protein 185) | 2.03 | enough cells in well
Nfkbie | 1.24 | enough cells in well
Or5i1 (olfactory receptor family 5 subfamily I member 1) | 0.51 | enough cells in well
Rab3gap1 (RAB3 GTPase activating protein subunit 1) | – | fewer than 50 cells per well; well left out of calls
Rpsa (ribosomal protein SA) | -1.87 (active) | enough cells in well

Reagents above called active (2):
gene | Tnf reporter robust z-score | fewer than 50 cells in well
Neu1 (neuraminidase 1) | -1.51 (active) | enough cells in well
Rpsa (ribosomal protein SA) | -1.87 (active) | enough cells in well

The list goes on.
gene | Tnf reporter robust z-score | fewer than 50 cells in well
Ddx1 (DEAD box helicase 1) | 0.89 | enough cells in well
Otof (otoferlin) | -0.65 | enough cells in well
Plekhf1 (pleckstrin homology and FYVE domain containing 1) | -0.59 | enough cells in well
Ptpn14 (protein tyrosine phosphatase, non-receptor type 14) | -1.13 | enough cells in well
Bag6 (BCL2-associated athanogene 6) | -0.58 | enough cells in well
1810009J06Rik (RIKEN cDNA 1810009J06 gene) | 0.48 | enough cells in well
Nmt1 (N-myristoyltransferase 1) | -0.08 | enough cells in well
Sun2 (Sad1 and UNC84 domain containing 2) | -1.24 | enough cells in well
Or8b1c (olfactory receptor family 8 subfamily B member 1C) | 2.78 | enough cells in well
Etfbkmt | -0.65 | enough cells in well
Inpp5a (inositol polyphosphate-5-phosphatase A) | 0.1 | enough cells in well
Macroh2a3 (macroH2A.3 histone) | -1.19 | enough cells in well
Ribc1 (RIB43A domain with coiled-coils 1) | -1.59 (active) | enough cells in well
Cpb2 (carboxypeptidase B2) | -0.45 | enough cells in well
Gucy2c (guanylate cyclase 2c) | 1.24 | enough cells in well
Scg3 (secretogranin III) | -0.82 | enough cells in well
9130221H12Rik (RIKEN cDNA 9130221H12 gene) | -1.38 (active) | enough cells in well
Mtif2 (mitochondrial translational initiation factor 2) | 0.42 | enough cells in well
Klk1b8 (kallikrein 1-related peptidase b8) | -0.2 | enough cells in well
Rbms2 (RNA binding motif, single stranded interacting protein 2) | 1.04 | enough cells in well
Hspa12a (heat shock protein family A (Hsp70) member 12A) | 4.36 (active) | enough cells in well
Ranbp9 (RAN binding protein 9) | 0.55 | enough cells in well
Tnrc6a (trinucleotide repeat containing 6a) | – | fewer than 50 cells per well; well left out of calls
Rims1 (regulating synaptic membrane exocytosis 1) | 1.53 | enough cells in well
Tram1l1 (translocation associated membrane protein 1-like 1) | – | fewer than 50 cells per well; well left out of calls
